Reference: patent publication US11584744B2 (UNIVERSITY OF WASHINGTON, priority 2017, dated 2023)
Where two headings read alike, the source gives them in different places.

Test: Cytotoxicity testing on mammalian cells (AlamarBlue, 48 hours)
Assay type: cell-based
Conditions: human
Method: Cytotoxicity testing on mammalian cells: Compounds were assayed for cytotoxicity against CRL-8155 (human lymphoblasts) and HepG2 cells (human hepatocellular carcinoma). Cells were exposed to serial dilutions of compounds for 48 hours and toxicity was quantified using AlamarBlue (ThermoFisher Scientific, Waltham, Mass.). Assays were performed in quadruplicate and EC50 values were calculated with non-linear regression methods using software by the Collaborative Drug Database (Burlingame, Calif. www.collaborativedrug.com)

Compound `O=C(O)c1cn(C2CC2)c2cc(N3CCNCC3)c(F)cc2c1=O` [CIP, ciprofloxacin] has a CC50 at 48 h (CRL-8155 cells (human lymphoblasts), read-out: Mamm. cells (CRL8155) CC50) greater than 33 µg/mL and a CC50 at 48 h (HepG2 cells (human hepatocellular carcinoma), read-out: Mamm. cells (HepG2) CC50) greater than 33 µg/mL.
